Laboratory results taken from publication doi:10.1101/2022.05.27.493685.
No constants are given. Whether binding was seen depends on the method and setting. In cells and extracts the contact can be indirect. Some results given as binding are weak or reduced against the parent protein; the word gives no strength.

Sequences of proteins named here, by UniProt entry; tags and fusion partners are left off.
UniProt P62960: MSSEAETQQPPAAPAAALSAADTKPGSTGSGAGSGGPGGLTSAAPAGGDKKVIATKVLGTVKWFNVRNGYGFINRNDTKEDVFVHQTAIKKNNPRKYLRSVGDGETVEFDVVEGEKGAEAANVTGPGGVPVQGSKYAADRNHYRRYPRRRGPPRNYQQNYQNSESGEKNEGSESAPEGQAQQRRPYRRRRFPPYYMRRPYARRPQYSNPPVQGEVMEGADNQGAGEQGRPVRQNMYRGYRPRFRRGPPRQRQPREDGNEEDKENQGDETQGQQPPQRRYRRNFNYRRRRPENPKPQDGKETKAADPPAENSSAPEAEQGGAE

Molecular target: YBX1 (Y-box binding protein 1), endogenous in BMSCs (mouse (endogenous in BMSCs)) (UniProt P62960)
Assay: co-IP

B1: FBXO33 (ubiquitin ligase), endogenous in BMSCs (protein, UniProt Q8VE08 1-562)
chain: MLLFLSVPQPRPPGARTRAGAARLVRWRRRQRLRLLQLRRLRGLLRGLRRRPGTGGRRPSRMALCGQAAGAASLPSELIVHIFSFLPAPDRLRASASCSHWRECLFYPALWPQLRICLRVSPAEQPRLEFLMRKCGWFVRELRVEFAAENYLSGGGGPGDGGSGGGTDTGTGGEDGEALQLSSRWLEVLRIYLELVLCVLLSIRNNRNLQKFSLFGDISVVHQQGSLSSTYLSRVDPDGKKIKQIQQLFEEILSNSRQLKWLSCGFMLEIVTPTSLSSLSNPIANTMEHLSLLDNNIPGNSTLITAVELERFVNLRSLALDFCDFTAEMARVLTDSNHVPLQRLSLLVHNASVMLKSLDNMPNDEHWKALSRKSSSLRVYLMVFDIKSEDMLKILKPSIPLERVHFDSYVTCVSGAIVDLISRQYDKFLTHFILMNDMIDTSGFPDLSDNRNEDPLVLLAWRCTKLTLLAIHGYTVWAHNLIAIARLRGSDLKVLQVTEESIDFDQGELADQDVDPVQNLIEQVSLGLGQSWHAVLDIESLSVFTEPNRHFYREMQSFSEDI
With B1 the binding was “binds”.
